Assay results as given in paper PMC5627455.
No constants are given. Whether binding was seen depends on the method and setting. Binding seen in cells or lysates may run through a third protein. Some binding calls cover weakened binding; strength is not graded here. For part of these data: Where a sequence is shown, tags or fusion partners need not be part of it.

By UniProt entry, the sequences of proteins in these tests, tags left out.
UniProt Q8TEK3: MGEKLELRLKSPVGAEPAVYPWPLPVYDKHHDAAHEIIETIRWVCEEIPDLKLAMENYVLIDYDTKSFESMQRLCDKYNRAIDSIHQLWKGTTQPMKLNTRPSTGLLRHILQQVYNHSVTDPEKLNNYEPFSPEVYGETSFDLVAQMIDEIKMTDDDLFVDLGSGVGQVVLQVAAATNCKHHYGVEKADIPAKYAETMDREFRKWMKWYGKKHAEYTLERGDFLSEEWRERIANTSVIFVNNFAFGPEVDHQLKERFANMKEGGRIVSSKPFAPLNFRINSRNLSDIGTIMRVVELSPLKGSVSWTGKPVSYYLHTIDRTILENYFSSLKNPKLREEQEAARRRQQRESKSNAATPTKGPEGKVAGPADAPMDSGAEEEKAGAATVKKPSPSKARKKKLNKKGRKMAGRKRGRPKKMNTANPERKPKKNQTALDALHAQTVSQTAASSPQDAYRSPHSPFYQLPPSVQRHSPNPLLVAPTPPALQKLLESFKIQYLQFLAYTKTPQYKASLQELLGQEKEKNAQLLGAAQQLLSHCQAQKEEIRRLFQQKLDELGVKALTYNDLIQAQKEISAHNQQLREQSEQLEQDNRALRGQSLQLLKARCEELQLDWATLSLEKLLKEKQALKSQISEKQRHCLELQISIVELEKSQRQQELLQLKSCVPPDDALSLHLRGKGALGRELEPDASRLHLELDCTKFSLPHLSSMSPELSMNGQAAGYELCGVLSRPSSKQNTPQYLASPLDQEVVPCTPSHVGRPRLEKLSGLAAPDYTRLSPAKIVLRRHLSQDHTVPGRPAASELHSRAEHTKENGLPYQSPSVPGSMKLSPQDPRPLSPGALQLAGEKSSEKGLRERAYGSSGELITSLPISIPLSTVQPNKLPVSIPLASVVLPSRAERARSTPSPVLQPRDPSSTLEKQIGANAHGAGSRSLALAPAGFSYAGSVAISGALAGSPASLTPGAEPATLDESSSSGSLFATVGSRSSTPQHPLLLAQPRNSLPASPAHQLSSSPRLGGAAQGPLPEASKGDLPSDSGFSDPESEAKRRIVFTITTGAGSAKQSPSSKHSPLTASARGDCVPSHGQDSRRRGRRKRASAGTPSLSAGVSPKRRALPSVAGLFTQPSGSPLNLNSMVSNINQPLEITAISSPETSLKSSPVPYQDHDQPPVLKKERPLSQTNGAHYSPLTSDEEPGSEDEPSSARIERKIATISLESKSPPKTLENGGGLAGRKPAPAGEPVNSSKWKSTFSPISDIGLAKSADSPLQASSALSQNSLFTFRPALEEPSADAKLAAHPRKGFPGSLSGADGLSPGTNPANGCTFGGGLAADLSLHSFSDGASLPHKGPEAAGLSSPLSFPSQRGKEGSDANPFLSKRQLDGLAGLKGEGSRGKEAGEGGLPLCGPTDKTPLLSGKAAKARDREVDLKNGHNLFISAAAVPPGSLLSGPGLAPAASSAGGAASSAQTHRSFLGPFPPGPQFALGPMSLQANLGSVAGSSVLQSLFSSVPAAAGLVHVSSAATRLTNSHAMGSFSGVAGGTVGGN
UniProt Q8BX22: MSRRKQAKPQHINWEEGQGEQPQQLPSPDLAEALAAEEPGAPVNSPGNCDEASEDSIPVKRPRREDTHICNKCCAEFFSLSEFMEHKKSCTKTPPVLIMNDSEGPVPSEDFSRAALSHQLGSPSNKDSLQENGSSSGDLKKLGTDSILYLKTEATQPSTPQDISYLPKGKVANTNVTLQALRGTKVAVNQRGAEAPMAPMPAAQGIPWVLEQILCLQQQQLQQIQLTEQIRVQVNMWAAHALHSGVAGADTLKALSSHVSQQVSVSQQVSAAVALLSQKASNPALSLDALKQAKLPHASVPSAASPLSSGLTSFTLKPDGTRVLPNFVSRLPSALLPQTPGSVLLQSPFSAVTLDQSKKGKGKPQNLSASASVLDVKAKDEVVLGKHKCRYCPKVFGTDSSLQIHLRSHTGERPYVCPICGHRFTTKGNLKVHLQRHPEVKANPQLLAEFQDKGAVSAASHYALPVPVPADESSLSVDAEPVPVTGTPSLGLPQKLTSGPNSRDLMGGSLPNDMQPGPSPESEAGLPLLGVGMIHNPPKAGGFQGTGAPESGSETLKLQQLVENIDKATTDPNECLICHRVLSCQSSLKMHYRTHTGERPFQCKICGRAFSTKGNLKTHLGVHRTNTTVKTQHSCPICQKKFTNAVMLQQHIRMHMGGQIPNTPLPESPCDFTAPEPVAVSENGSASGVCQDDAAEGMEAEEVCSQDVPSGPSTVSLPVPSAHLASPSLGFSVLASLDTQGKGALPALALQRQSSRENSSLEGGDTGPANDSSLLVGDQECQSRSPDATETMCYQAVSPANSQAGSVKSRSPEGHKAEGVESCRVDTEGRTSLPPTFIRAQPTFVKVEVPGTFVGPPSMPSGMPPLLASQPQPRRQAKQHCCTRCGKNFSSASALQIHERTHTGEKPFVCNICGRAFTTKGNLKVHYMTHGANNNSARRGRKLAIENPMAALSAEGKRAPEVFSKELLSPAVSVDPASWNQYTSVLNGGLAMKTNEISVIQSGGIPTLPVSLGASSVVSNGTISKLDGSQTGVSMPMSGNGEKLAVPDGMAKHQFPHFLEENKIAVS
UniProt Q6XZL8: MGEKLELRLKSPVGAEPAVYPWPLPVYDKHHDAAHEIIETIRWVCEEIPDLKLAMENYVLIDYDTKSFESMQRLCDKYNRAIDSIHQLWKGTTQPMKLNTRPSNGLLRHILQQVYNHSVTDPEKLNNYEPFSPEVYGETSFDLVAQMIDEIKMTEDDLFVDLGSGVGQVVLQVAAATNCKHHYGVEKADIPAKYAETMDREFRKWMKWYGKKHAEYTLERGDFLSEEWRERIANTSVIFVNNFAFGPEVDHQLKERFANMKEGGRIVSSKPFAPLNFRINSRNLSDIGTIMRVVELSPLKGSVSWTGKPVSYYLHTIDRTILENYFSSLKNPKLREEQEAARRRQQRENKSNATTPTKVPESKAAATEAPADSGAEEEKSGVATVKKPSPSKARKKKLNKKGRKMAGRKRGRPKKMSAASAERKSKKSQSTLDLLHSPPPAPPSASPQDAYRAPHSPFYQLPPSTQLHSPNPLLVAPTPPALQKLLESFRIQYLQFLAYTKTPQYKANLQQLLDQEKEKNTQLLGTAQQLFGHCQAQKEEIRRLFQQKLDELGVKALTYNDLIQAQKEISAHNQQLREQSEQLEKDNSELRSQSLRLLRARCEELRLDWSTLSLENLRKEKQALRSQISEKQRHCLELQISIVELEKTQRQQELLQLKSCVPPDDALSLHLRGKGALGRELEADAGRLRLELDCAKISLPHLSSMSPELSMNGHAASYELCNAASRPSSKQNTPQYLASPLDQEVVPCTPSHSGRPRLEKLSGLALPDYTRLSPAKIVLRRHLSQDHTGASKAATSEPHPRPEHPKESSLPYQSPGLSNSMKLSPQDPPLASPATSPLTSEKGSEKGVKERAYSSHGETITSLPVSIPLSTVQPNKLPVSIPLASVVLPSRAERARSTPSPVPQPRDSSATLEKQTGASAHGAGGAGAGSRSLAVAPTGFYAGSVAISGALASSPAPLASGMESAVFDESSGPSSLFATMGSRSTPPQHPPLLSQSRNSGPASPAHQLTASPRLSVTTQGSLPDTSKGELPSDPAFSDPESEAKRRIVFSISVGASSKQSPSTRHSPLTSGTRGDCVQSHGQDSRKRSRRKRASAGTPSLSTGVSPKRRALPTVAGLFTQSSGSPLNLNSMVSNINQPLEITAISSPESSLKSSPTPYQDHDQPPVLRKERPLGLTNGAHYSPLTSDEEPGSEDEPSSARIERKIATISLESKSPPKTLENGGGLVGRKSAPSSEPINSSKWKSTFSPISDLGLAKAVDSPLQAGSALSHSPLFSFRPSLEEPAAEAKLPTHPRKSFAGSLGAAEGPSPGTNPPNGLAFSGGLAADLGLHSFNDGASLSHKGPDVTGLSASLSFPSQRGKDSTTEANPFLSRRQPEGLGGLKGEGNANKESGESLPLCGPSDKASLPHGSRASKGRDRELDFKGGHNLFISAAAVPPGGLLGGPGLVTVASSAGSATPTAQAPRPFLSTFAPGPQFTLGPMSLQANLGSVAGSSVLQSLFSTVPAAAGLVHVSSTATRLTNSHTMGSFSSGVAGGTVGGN

B1: HA-tagged SALL4B isoform (protein, UniProt Q9UJQ4-2 1-616)
chain: MSRRKQAKPQHINSEEDQGEQQPQQQTPEFADAAPAAPAAGELGAPVNHPGNDEVASEDEATVKRLRREETHVCEKCCAEFFSISEFLEHKKNCTKNPPVLIMNDSEGPVPSEDFSGAVLSHQPTSPGSKDCHRENGGSSEDMKEKPDAESVVYLKTETALPPTPQDISYLAKGKVANTNVTLQALRGTKVAVNQRSADALPAPVPGANSIPWVLEQILCLQQQQLQQIQLTEQIRIQVNMWASHALHSSGAGADTLKTLGSHMSQQVSAAVALLSQKAGSQGLSLDALKQAKLPHANIPSATSSLSPGLAPFTLKPDGTRVLPNVMSRLPSALLPQAPGSVLFQSPFSTVALDTSKKGKGKPPNISAVDVKPKDEAALYKHKCRSSLPSTFIRAPPTYVKVEVPGTFVGPSTLSPGMTPLLAAQPRRQAKQHGCTRCGKNFSSASALQIHERTHTGEKPFVCNICGRAFTTKGNLKVHYMTHGANNNSARRGRKLAIENTMALLGTDGKRVSEIFPKEILAPSVNVDPVVWNQYTSMLNGGLAVKTNEISVIQSGGVPTLPVSLGATSVVNNATVSKMDGSQSGISADVEKPSATDGVPKHQFPHFLEENKIAVS

How the values were obtained:
[1] = target: DOT1-like histone H3K79 methyltransferase (DOT1L) in 293 T cells (human (endogenous in 293 T)) (UniProt Q8TEK3); assay: co-IP; 293 T cells transfected with HA-tagged SALL4 constructs or empty vector; anti-DOT1L antibody (Bethyl) on Dynabeads Protein G; Western blot with anti-HA
[2] = target: SALL4, endogenous in MLL-AF9-transformed mouse Lin- bone marrow cells (mouse (endogenous in MLL-AF9-transformed Lin- BM cells)) (UniProt Q8BX22); assay: co-IP; MLL-AF9-transformed mouse Lin- BM cells, endogenous proteins, with or without 4-OHT (Sall4 deletion); anti-Sall4 antibody for IP; Western blot

Molecule | binding [1] | binding [2]
HA-tagged SALL4A isoform (from UniProt Q9UJQ4-1 1-1053) | binds | –
DOT1L, endogenous in MLL-AF9-transformed mouse Lin- bone marrow cells (from UniProt Q6XZL8 1-1540) (enzyme) | – | binds
B1 | binds | –
